Some test systems named below: C20orf160 (human); C20orf18 (human); C20orf3 (human); C20orf7 (human); C20orf70 (human); C21orf2 (human); C21orf33 (human); C21orf51 (human); C21orf7 (human); C21orf84 (human); C21orf91 (human); C2orf18 (human); C2orf33 (human); C2orf43 (human); C3orf45 (human); C4BPB (human).
What all share (test): protein microarray (ProtoArray v5.0), streptavidin-Alexa Fluor 647
Settings in all cases: 3'-biotin; 20 mM Tris (pH 7.5), 5 mM MgCl2, 100 mM KCl, 0.1% Tween-20, A/T-rich and random oligonucleotide blockers; temperature not stated; high values mean tight binding

Another test addresses C2orf34 (UniProt Q7Z624).
For a further test, the target named is C2orf7 (UniProt Q9BSG0).
For another test, the target named is T1, C3orf59 (UniProt Q8IYB1).
T1 sequence: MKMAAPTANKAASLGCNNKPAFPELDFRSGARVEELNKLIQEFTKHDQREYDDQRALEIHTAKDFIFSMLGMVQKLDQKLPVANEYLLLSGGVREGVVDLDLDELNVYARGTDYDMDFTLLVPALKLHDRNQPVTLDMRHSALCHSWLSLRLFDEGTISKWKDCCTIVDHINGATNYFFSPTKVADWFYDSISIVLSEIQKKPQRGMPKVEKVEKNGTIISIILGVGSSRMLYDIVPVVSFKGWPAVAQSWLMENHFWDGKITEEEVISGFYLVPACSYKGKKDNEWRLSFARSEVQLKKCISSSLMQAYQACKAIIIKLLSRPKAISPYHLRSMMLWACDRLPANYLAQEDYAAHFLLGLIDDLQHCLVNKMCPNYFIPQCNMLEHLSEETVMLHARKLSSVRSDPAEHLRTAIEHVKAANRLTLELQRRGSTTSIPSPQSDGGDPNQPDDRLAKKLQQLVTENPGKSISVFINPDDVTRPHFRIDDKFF

Test [1] has as its system C4b-binding protein beta chain (human).

Where “and” joins values, the source holds several entries; their conditions need not be identical. Equal values may be shown once. This is one part of the list. For some assays here: The source does not settle which construct or isoform was used.

In the case of “GGGAGGCTGAGGCAGG [G4-1 biotinylated (PQS2)]”, the binding signal with C20orf160 (human) was -0.355 z-score; in the test on C20orf18 (human) it was -0.31 z-score; in the test on C20orf3 (human), -0.348 z-score; with C20orf7 (human), -0.297 z-score; in the test with C20orf70 (human) it was -0.34 z-score; with C21orf2 (human), -0.325 z-score. For the same sequence, the binding signal with C21orf33 (human) is -0.326 z-score; with C21orf51 (human), -0.33 z-score; in the test with C21orf7 (human), -0.344 z-score; in the test with C21orf84 (human), -0.327 z-score; with C21orf91 (human), -0.341 z-score; in the test with C2orf18 (human) it was -0.337 z-score and -0.314 z-score. The binding signal with C2orf33 (human) is -0.355 z-score; with C2orf34, -0.319 z-score and -0.284 z-score; in the test on C2orf43 (human), -0.359 z-score; in the test with C2orf7 it was -0.322 z-score; in the test with C3orf45 (human), -0.331 z-score; with C3orf59 it was -0.306 z-score. For the same sequence, the values for the binding signal (in the test on C4BPB (human); in test [1]) were -0.329 z-score and -0.332 z-score, respectively.
